PubChem BioAssay AID504467 (National Center for Advancing Translational Sciences (NCATS), 2011)
About 7,700 (2.3%) of roughly 330,000 compounds were called active. This list was built around the results that the source calls inconclusive (neither active nor inactive); the mix of calls is not that of the screen. Calls come from the whole dose curve; as a rule, active = well fitted inhibition curve with a large enough effect; inconclusive = small, poorly fitted or top-dose-only effect, or effect the other way; inactive = flat fitted curve, though single readings scatter. Where the call is inconclusive, the potency comes from a doubtful curve fit.
% is set by controls: 0 for no effect and ±100 for the full control effect; potency is the fitted concentration of half-maximal effect.

Test: qHTS screen for small molecules that inhibit ELG1-dependent DNA repair in human embryonic kidney (HEK293T) cells expressing luciferase-tagged ELG1; note: nearly all actives have a fitted effect of over 55% in size
Details: HEK293T ELG1-luciferase reporter, luminescence, 16 h, DNA damage induced by 5-fluorouridine; activity change, negative = inhibition: at 46.1 µM (top of the series)
Outline: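 Quantitative HTS, concentration-response format. 2,000 cells/well co-treated with 5-fluorouridine and compound, 16 hr in 5% CO2 at 37 °C; ONE-Glo luminescence read after 30 min.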
For `COc1ccc(OC2C(=O)N(c3ccc(F)cc3)C2c2ccc(OC)c(OC)c2)cc1` (stereo not given), the Potency was inconclusive: 16.4 µM [inhibitor, partial curve]. In the case of `O=C(CN(C(=O)CNC(=O)c1cccs1)c1ccccc1F)NC1CCCC1`, the “activity change, negative = inhibition” value is reported as inactive: -2.08%. With `CSCCC(NC(=O)c1cc([N+](=O)[O-])cc([N+](=O)[O-])c1)c1nc2ccccc2[nH]1` (stereo not given) the Potency was inconclusive: 16.4 µM [inhibitor, single point]. With `Cc1cc(C)c(C)c(S(=O)(=O)N2CCN(C(=S)NCC3CCCO3)CC2)c1C` (stereo not given) the Potency was inconclusive: 18.3 µM [inhibitor, single point]. In the case of `CCN(CC)S(=O)(=O)c1ccc(/C=C/C(=O)OCC(=O)Nc2ccc(S(N)(=O)=O)cc2)cc1`, the “activity change, negative = inhibition” value is reported as inactive: -0.793%. With `O=C(Cn1cnc2ccccc2c1=O)Nc1ccc(-c2nnc3n2CCCCC3)cc1` the Potency was inconclusive: 29.1 µM [inhibitor, single point]. In the case of `CC(C)CNS(=O)(=O)c1ccc(CCC(=O)O)cc1`, the “activity change, negative = inhibition” value is reported as inactive: 8.07%. In the case of `CC1=C(C(=O)Nc2ccc(C(=O)N3CCN(c4ccccc4F)CC3)cc2)SCCO1`, the Potency is reported as inconclusive: 23.1 µM [inhibitor, partial curve, poor fit]. In the case of `CN(C)S(=O)(=O)c1cc(NC(=O)CNCc2ccc(F)cc2)ccc1Cl`, the Potency is reported as inconclusive: 18.3 µM [inhibitor, single point]. For `CCCn1c(Nc2nc3ccccc3n2C)nc2ccccc21`, the Potency was inconclusive: 14.6 µM [activator, single point]. In the case of `CC(=O)Nc1ccc(S(=O)(=O)Nc2nc3ccccc3nc2Nc2ccccc2)cc1`, the Potency is reported as inconclusive: 29.1 µM [activator, partial curve, poor fit]. For `FC(F)(F)c1ccccc1/C=N/N1CCN(Cc2ccccc2)CC1`, the Potency was inconclusive: 20.6 µM [activator, single point]. For `O=C(NCc1ccccc1)C1CCC(=O)N(CC2CCCCC2)C1` (stereo not given), the “activity change, negative = inhibition” value was inactive: 11.6%. In the case of `CCS(=O)(=O)Nc1ccc(-c2nc3cccnc3s2)cc1`, the Potency is reported as inconclusive: 2.31 µM [activator, partial curve]. For `O=C(NC(=S)NC1C2CC3CC(C2)CC1C3)C12CC3CC(CC(C3)C1)C2` (stereo not given), the “activity change, negative = inhibition” value was inactive: 20.1%. For `Nc1ccc(Cl)c[n+]1Cc1cccc2cccnc12`, the “activity change, negative = inhibition” value was inactive: -15.9%. In the case of `Cc1occc1C(=O)N(C)Cc1nc(-c2ccc(Cl)cc2)no1`, the Potency is reported as inconclusive: 25.9 µM [inhibitor, single point]. With `CN(C)c1ccc(P(=O)(OC2CCCCC2)C(O)c2ccncc2)cc1` (stereo not given) the “activity change, negative = inhibition” value was inactive: 9.73%. With `Cc1ccc(N2CCN(C(=O)NC3CCCCC3)CC2C)cc1` (stereo not given) the “activity change, negative = inhibition” value was inactive: -4.54%. For `CCN(CC)c1nc2ccccc2n(Cc2cccc(OC)c2)c1=O`, the “activity change, negative = inhibition” value was inactive: -0.788%. For `N/C(=N\OC(=O)CCC1CCCC1)c1ccccn1`, the Potency was inconclusive: 18.4 µM [activator, partial curve]. For `COc1ccc(S(=O)(=O)N2CCC(C(=O)Nc3ccccc3N3CCCCC3)CC2)cc1OC`, the Potency was inconclusive: 16.4 µM [inhibitor, single point]. For `Cc1cccc(N2C(S)=C(C#N)C(=O)NC2c2cccs2)c1` (stereo not given), the “activity change, negative = inhibition” value was inactive: 14.8%. With `Cc1cccc(C(=O)N/N=C/c2ccncc2)c1` the Potency was inconclusive: 20.6 µM [activator, single point]. With `CC(C)CC(=O)Nc1nnc(SCC(=O)Nc2ccc(F)cc2)s1` the Potency was inconclusive: 18.3 µM [inhibitor, single point]. In the case of `CN(CC(=O)Nc1ccncc1)S(=O)(=O)c1ccc(Cl)cc1`, the Potency is reported as inconclusive: 12.6 µM [inhibitor, partial curve]. In the case of `C=C(C)CN(CC)c1nc(N)c2c(N)nc3c(c2c1C#N)CC(=O)N3C12CC3CC(CC(C3)C1)C2`, the Potency is reported as inconclusive: 20.6 µM [inhibitor, single point]. With `CCOc1ccccc1NC(=O)CC1Nc2ccccc2NC1=O` (stereo not given) the “activity change, negative = inhibition” value was inactive: -9.51%. In the case of `CCC(C(=O)Nc1cccc(OC)c1)n1nc(C)c2c(C)n(-c3ccccc3)nc2c1=O` (stereo not given), the Potency is reported as inconclusive: 29.1 µM [inhibitor, partial curve, poor fit]. With `CCCCN(C(=O)CCCc1nc2ccccc2c(=O)[nH]1)c1c(N)n(CCCC)c(=O)[nH]c1=O` the “activity change, negative = inhibition” value was inactive: 10.7%. For `COc1cccc(C2C(C(=O)c3ccc(C)o3)=C(O)C(=O)N2CCN2CCOCC2)c1` (stereo not given), the Potency was active: 20.6 µM. With `Cc1cc(NC(=O)COC(=O)c2cccc(OCc3ccccc3)c2)no1` the Potency was inconclusive: 11.6 µM [activator, partial curve, poor fit]. In the case of `O=C(Nc1ccccc1)c1ccc(-c2ccc(F)cc2)s1`, the Potency is reported as inconclusive: 7.3 µM [activator, partial curve]. With `COc1ccc(OC)c(NC(=O)CSc2nnc(C3CCCCC3)n2-c2ccccc2)c1` the Potency was inconclusive: 18.4 µM [inhibitor, partial curve, poor fit]. For `O=C(CSC1=NCCS1)Nc1ccccc1F`, the “activity change, negative = inhibition” value was inactive: 6.27%. For `CC(C)CN(CC(C)C)C(=O)COn1nnc2ccc(S(=O)(=O)N3CCOCC3)cc21`, the Potency was inconclusive: 18.3 µM [inhibitor, single point]. For `COc1cc(OC)cc(-c2cc3ccccc3c(=O)o2)c1`, the Potency was inconclusive: 8.2 µM [activator, partial curve]. In the case of `Nn1c(SCc2ccccc2)nnc1C1CCCCC1`, the Potency is reported as inconclusive: 16.4 µM [activator, single point]. With `COc1ccc(N2CC(C(=O)OCC(=O)Nc3cccc(C)c3)CC2=O)cc1` (stereo not given) the “activity change, negative = inhibition” value was inactive: 0.0666%. With `Cc1cc(C)n(C(=O)CNC(=O)c2ccc3c(c2)OCCO3)n1` the Potency was inconclusive: 29.1 µM [activator, single point]. For `CCCn1c(O)c(N=NC(=O)CNC(=O)/C=C/c2ccc(OC)cc2)c2ccccc21`, the Potency was inconclusive: 10.3 µM [inhibitor, partial curve, poor fit]. With `CCOC(=O)c1c(NC(=O)Cc2cccs2)sc(C)c1C` the “activity change, negative = inhibition” value was inactive: -24.6%. With `CCCCc1cc(=O)oc2cc(OC(C)C(=O)NCc3ccccn3)c(Cl)cc12` (stereo not given) the Potency was inconclusive: 29.1 µM [inhibitor, single point]. With `Cc1cccc(Cn2c(SCCO)nc3c2c(=O)n(C)c(=O)n3C)c1` the Potency was inconclusive: 10.3 µM [inhibitor, partial curve, poor fit]. With `CCN(c1ccc(NC(=O)COC(=O)c2ccc(S(=O)(=O)N3CCCC3)cc2)cc1)C(C)C` the Potency was inconclusive: 23.1 µM [activator, partial curve, poor fit]. For `Cn1c(=O)c2c(nc(CN3CCCCC3)n2Cc2c(F)cccc2Cl)n(C)c1=O`, the “activity change, negative = inhibition” value was inactive: 3.35%. With `Cc1ccc(NC(=O)C2CCN(C(=O)NC3CCCCC3)CC2)cc1Cl` the “activity change, negative = inhibition” value was inactive: -2.68%. With `CC1=NN(c2cccc(C(=O)O)c2)C(=O)/C1=C\C=C\c1ccco1` the Potency was inconclusive: 10.3 µM [activator, partial curve]. For `CN(CC1COc2ccccc2O1)C(=O)CSc1ncccn1` (stereo not given), the Potency was inconclusive: 20.6 µM [activator, partial curve]. In the case of `CCCCC(CC)Cn1c2nc3ccccc3nc2c2c(=N)oc(C)nc21` (stereo not given), the Potency is reported as inconclusive: 29.1 µM [inhibitor, single point]. For `CCOC(=O)C1=C(C)NC(=S)NC1c1ccc(-c2ccc(Cl)cc2)o1` (stereo not given), the Potency was inconclusive: 18.4 µM [inhibitor, single point]. For `COc1ccc(OC)c(NC(=S)NC(=O)c2ccc(Br)o2)c1`, the Potency was inconclusive: 18.3 µM [activator, single point]. For `CC1CCCCN1C(=O)c1c([N+](=O)[O-])cnn1C` (stereo not given), the “activity change, negative = inhibition” value was inactive: 4.99%. With `CCc1ccc(NC(=O)CSc2nc3ncc(Br)cc3[nH]2)cc1` the “activity change, negative = inhibition” value was inactive: 7.45%. In the case of `O=C(NCc1ccccc1Cl)c1cccc(C(F)(F)F)c1`, the “activity change, negative = inhibition” value is reported as inactive: 11.7%. For `COc1ccc(S(=O)(=O)N2CCCCCC2)cc1Br`, the “activity change, negative = inhibition” value was inactive: 6.98%. In the case of `COc1ccccc1C(=O)NC(CCSC)C(=O)NC1CC1` (stereo not given), the Potency is reported as inconclusive: 20.6 µM [activator, single point]. In the case of `COC(=O)c1cn(NC(=O)c2ccc(OC)c(OC)c2)c(=O)c2ccccc12`, the Potency is reported as inconclusive: 14.6 µM [inhibitor, partial curve]. With `Cc1nc2ccc(NC(=O)COc3ccccc3)cc2s1` the Potency was inconclusive: 20.6 µM [activator, partial curve]. In the case of `Cn1nc(C(=O)Nc2ccc(S(=O)(=O)NCc3ccco3)cc2)c2ccccc2c1=O`, the Potency is reported as inconclusive: 16.4 µM [activator, partial curve]. With `CCC1OC23CCCCC2C(C#N)(C(=N)O3)C1(C#N)C#N` (stereo not given) the “activity change, negative = inhibition” value was inactive: 7.05%. In the case of `COc1ccc(N/C=C2/Sc3ccccc3NC2=O)cc1`, the Potency is reported as inconclusive: 16.4 µM [activator, partial curve]. For `CCCN1Cc2cccc(C(=O)N3CCN(c4ccccc4)CC3)c2C1=O`, the Potency was inconclusive: 18.4 µM [activator, partial curve, poor fit]. For `C/C(=N\Nc1ncc(Cl)cc1Cl)c1ccc2c(c1)OCO2`, the Potency was inconclusive: 18.3 µM [activator, single point]. With `COc1cnc(-c2ccccn2)nc1Sc1ccc(C)cc1` the Potency was active: 23.1 µM. For `COc1cccc(C(=O)Nc2nnc(-c3cccs3)o2)c1`, the Potency was inconclusive: 18.4 µM [activator, partial curve]. With `C=CCN(Cc1cccs1)C(=O)CN1CCN(S(=O)(=O)c2ccc3c(c2)OCCCO3)CC1` the Potency was inconclusive: 32.6 µM [inhibitor, single point]. With `COc1cc2c(cc1NC(=O)COC(=O)CNC(=O)c1ccccc1)oc1ccccc12` the Potency was inconclusive: 8.2 µM [activator, single point]. In the case of `COc1cc(NC(=O)c2ccc3c(c2)OCCO3)ccc1NC(=O)c1cccs1`, the “activity change, negative = inhibition” value is reported as inactive: 4.35%. In the case of `O=C(NCCN1CCOCC1)c1ccc(/C=C2\Sc3ccccc3N(Cc3ccc(F)cc3)C2=O)cc1`, the Potency is reported as inconclusive: 29.1 µM [inhibitor, single point].
